Laboratory results: publication PMC10803770
These are yes or no findings as the source states them, for the method shown. Binding seen in cells or lysates may run through a third protein. Some results given as binding are weak or reduced against the parent protein; the word gives no strength.

The chains behind the UniProt entries cited, without tags or fusion partners. Residues count along the entry.
UniProt Q9UBV2, residues 22-794: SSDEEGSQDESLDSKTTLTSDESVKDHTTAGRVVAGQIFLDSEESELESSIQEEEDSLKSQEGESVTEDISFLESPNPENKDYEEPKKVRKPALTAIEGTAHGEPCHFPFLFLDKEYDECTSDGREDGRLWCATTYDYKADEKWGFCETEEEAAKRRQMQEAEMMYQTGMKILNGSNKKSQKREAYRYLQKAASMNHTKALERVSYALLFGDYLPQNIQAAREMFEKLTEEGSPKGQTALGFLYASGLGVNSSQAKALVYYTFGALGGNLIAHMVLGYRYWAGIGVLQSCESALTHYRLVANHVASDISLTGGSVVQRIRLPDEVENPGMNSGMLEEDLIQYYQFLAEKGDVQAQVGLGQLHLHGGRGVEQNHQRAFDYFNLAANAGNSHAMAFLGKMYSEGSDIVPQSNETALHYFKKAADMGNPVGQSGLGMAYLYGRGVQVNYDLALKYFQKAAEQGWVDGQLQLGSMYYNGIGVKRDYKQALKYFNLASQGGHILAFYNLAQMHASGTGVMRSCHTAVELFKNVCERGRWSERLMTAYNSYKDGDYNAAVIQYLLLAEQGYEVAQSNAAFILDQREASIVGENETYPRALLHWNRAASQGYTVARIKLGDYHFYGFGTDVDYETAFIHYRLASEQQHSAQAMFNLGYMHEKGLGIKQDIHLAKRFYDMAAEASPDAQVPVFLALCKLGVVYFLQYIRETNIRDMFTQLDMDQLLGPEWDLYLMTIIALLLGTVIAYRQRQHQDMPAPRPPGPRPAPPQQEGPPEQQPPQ

Tests used:
[1] = target: SEL1L (human (endogenous in HEK293T)) (UniProt Q9UBV2); assay: co-IP; IP of endogenous SEL1L with home-made anti-SEL1L antibody and protein A agarose from ~5 mg HEK293T lysate (WT, HRD1 KO; SEL1L KO and IgG as controls); 150 mM NaCl, 0.2% NP40, 0.1% Triton X-100, 25 mM Tris-HCl pH 7.5, 10 mM N-ethylmaleimide, 4 °C; immunoblot
[2] = target: T1, phosphatidylinositol glycan anchor biosynthesis class K (human (endogenous in HEK293T)) (UniProt Q92643); assay: co-IP; IP of endogenous PIGK with anti-PIGK (Abcam ab201693) and protein A agarose from HEK293T lysate (WT, SEL1L KO, HRD1 KO); 150 mM NaCl, 0.2% NP40, 0.1% Triton X-100, 25 mM Tris-HCl pH 7.5, 4 °C; immunoblot
T1 sequence: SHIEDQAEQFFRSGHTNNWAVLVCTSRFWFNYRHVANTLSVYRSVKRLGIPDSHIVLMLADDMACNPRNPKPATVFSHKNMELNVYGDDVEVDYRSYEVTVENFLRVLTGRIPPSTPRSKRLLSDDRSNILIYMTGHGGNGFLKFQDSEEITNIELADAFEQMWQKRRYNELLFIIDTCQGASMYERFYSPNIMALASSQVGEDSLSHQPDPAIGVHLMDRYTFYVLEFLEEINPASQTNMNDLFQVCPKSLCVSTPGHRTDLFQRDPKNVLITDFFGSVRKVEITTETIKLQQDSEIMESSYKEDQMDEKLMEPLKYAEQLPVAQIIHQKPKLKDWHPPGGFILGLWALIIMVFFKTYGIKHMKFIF

B1: OS9 (protein, UniProt Q13438 26-667)
chain: GGVGSLNLEELSEMRYGIEILPLPVMGGQSQSSDVVIVSSKYKQRYECRLPAGAIHFQREREEETPAYQGPGIPELLSPMRDAPCLLKTKDWWTYEFCYGRHIQQYHMEDSEIKGEVLYLGYYQSAFDWDDETAKASKQHRLKRYHSQTYGNGSKCDLNGRPREAEVRFLCDEGAGISGDYIDRVDEPLSCSYVLTIRTPRLCPHPLLRPPPSAAPQAILCHPSLQPEEYMAYVQRQADSKQYGDKIIEELQDLGPQVWSETKSGVAPQKMAGASPTKDDSKDSDFWKMLNEPEDQAPGGEEVPAEEQDPSPEAADSASGAPNDFQNNVQVKVIRSPADLIRFIEELKGGTKKGKPNIGQEQPVDDAAEVPQREPEKERGDPERQREMEEEEDEDEDEDEDEDERQLLGEFEKELEGILLPSDRDRLRSEVKAGMERELENIIQETEKELDPDGLKKESERDRAMLALTSTLNKLIKRLEEKQSPELVKKHKKKRVVPKKPPPSPQPTEEDPEHRVRVRVTKLRLGGPNQDLTVLEMKRENPQLKQIEGLVKELLEREGLTAAGKIEIKIVRPWAEGTEEGARWLTDEDTRNLKEIFFNILVPGAEEAQKERQRQKELESNYRRVWGSPGGEGTGDLDEFDF
binding [1]: binds

B2: phosphatidylinositol glycan anchor biosynthesis class K (protein, UniProt Q92643 28-395)
chain: T1 sequence
binding [1]: binds

B3: PIGT (protein, UniProt Q969N2 22-578)
chain: LAEPPRDSLREELVITPLPSGDVAATFQFRTRWDSELQREGVSHYRLFPKALGQLISKYSLRELHLSFTQGFWRTRYWGPPFLQAPSGAELWVWFQDTVTDVDKSWKELSNVLSGIFCASLNFIDSTNTVTPTASFKPLGLANDTDHYFLRYAVLPREVVCTENLTPWKKLLPCSSKAGLSVLLKADRLFHTSYHSQAVHIRPVCRNARCTSISWELRQTLSVVFDAFITGQGKKDWSLFRMFSRTLTEPCPLASESRVYVDITTYNQDNETLEVHPPPTTTYQDVILGTRKTYAIYDLLDTAMINNSRNLNIQLKWKRPPENEAPPVPFLHAQRYVSGYGLQKGELSTLLYNTHPYRAFPVLLLDTVPWYLRLYVHTLTITSKGKENKPSYIHYQPAQDRLQPHLLEMLIQLPANSVTKVSIQFERALLKWTEYTPDPNHGFYVSPSVLSALVPSMVAAKPVDWEESPLFNSLFPVSDGSNYFVRLYTEPLLVNLPTPDFSMPYNVICLTCTVVAVCYGSFYNLLTRTFHIEEPRTGGLAKRLANLIRRARGVPPL
binding [2]: binds
binding [1]: binds
